# Test results taken from the supplement of paper PMC12889115.
# The list shows a part of the results. Values are raw readings; no control value is given beside them.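 Primary screen: polymyxin B was added at a level permeabilizing Salmonella outer membranes while sparing inner membranes. DMSO wells, both with and without polymyxin B, established maximum growth. Plate-to-plate variation meant each plate was ranked on its own, and the lowest-OD600 compounds were selected as hits.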
# Tested on: Salmonella enterica serovar Typhimurium SL1344
# Assay: bacterial growth OD600 after 18 h with compound and polymyxin B; higher = more bacterial growth (less inhibition)
# Settings: 50 µM, Mueller-Hinton broth
smiles,measurement,setting,value
COc1ccc(Cl)cc1NC(=O)CCC1CCCN(C(=O)C2=CCCC2)C1 (stereo not given),bacterial growth OD600,polymyxin B 0.75 µg/mL,0.774
CCC(C)C(=O)N1CCc2ccc(NC(=O)CCc3ccc(C)cc3)cc2C1 (stereo not given),bacterial growth OD600,polymyxin B 0.75 µg/mL,0.009
O=C(c1cc(Cl)ccc1OC1CCN(C2CCCC2)CC1)N1CCCCO1,bacterial growth OD600,polymyxin B 1 µg/mL,0.957
CC(CNc1nncc(-c2cccc3ccccc23)n1)Oc1cccnc1 (stereo not given),bacterial growth OD600,polymyxin B 0.75 µg/mL,0.711
COCC1CCCCN1Cc1nc(-c2ccc(OC)cc2)no1 (stereo not given),bacterial growth OD600,polymyxin B 1 µg/mL,0.836
CCN1CCN(C(=O)c2ccc(N3CCC(NC(C)C45CC6CC(CC(O)(C6)C4)C5)CC3)cc2)CC1 (stereo not given),bacterial growth OD600,polymyxin B 0.75 µg/mL,0.883
CCOC(=O)C1(Cc2ccc(Cl)cc2)CCN(C(=O)c2ccc3nccnc3c2)CC1,bacterial growth OD600,polymyxin B 1 µg/mL,0.003
COC(=O)CCC(=O)N1CCC(C2CCN(Cc3ccc(Cl)cc3)C2)CC1 (stereo not given),bacterial growth OD600,polymyxin B 0.75 µg/mL,0.751
Cc1c[nH]c(CN(C)C(=O)CC(c2cccc(O)c2)c2cccc(Cl)c2)n1 (stereo not given),bacterial growth OD600,polymyxin B 1 µg/mL,0.712
CC(C)CCNC(=O)c1cn(C2CCCC2)cc(C(=O)N2CCN(C(C)C)CC2)c1=O,bacterial growth OD600,polymyxin B 0.75 µg/mL,0.866
O=C(c1n[nH]c2c1CCC2)N1CCc2[nH]nc(-c3ccccc3F)c2C1,bacterial growth OD600,polymyxin B 0.75 µg/mL,0.783
COc1ccccc1CN1CCCC(CN(CCN(C)C)C(=O)c2cccnc2)C1 (stereo not given),bacterial growth OD600,polymyxin B 1 µg/mL,1.02
CN(CCc1ccccn1)c1ccc(C(=O)N2CCCC(Cn3ccnc3)C2)cn1 (stereo not given),bacterial growth OD600,polymyxin B 0.75 µg/mL,0.857
CCCc1cc(C(=O)NCc2cccnc2N2CCCC(O)C2)n(C)n1 (stereo not given),bacterial growth OD600,polymyxin B 0.75 µg/mL,0.749
CCCN(CC1CCCO1)C(=O)CC1(c2ccccc2)CC(=O)N(Cc2cccs2)C1=O (stereo not given),bacterial growth OD600,polymyxin B 0.75 µg/mL,0.79
Cc1ccsc1S(=O)(=O)N1CCCC(CNS(=O)(=O)Cc2ccccc2)C1 (stereo not given),bacterial growth OD600,polymyxin B 1 µg/mL,0.87
COC(=O)c1ccc(-c2nc(CN3CCCCC3CCn3cccn3)c(C)o2)cc1 (stereo not given),bacterial growth OD600,polymyxin B 1 µg/mL,0.852
O=C(NCc1nnc(-c2ccccc2)o1)C1CCC(=O)N(CCc2cccc(F)c2)C1 (stereo not given),bacterial growth OD600,polymyxin B 1 µg/mL,0.909
COCCC1CCCCN1C(=O)c1coc(COc2ccc(F)cc2)n1 (stereo not given),bacterial growth OD600,polymyxin B 1 µg/mL,0.964
CCn1ccnc1CN1CCCC(CNS(=O)(=O)Cc2ccccc2)C1 (stereo not given),bacterial growth OD600,polymyxin B 0.75 µg/mL,0.782
CCN(CC1CCCN(CCc2cccc(F)c2)C1)C(=O)Cn1ccnc1 (stereo not given),bacterial growth OD600,polymyxin B 0.75 µg/mL,0.967
CCCn1c(C)c(CC(=O)N(CC)CC)c2c1CC(C)(C)CC2=O,bacterial growth OD600,polymyxin B 0.75 µg/mL,0.904
CSCC(=O)NC1CC(C)(C)Cc2nc(N3CCOCC3)ncc21 (stereo not given),bacterial growth OD600,polymyxin B 0.75 µg/mL,0.867
CCN(CC1CCN(CCc2ccccc2C)CC1)C(=O)c1ccoc1C,bacterial growth OD600,polymyxin B 1 µg/mL,1.19
Cc1[nH]c2ccc(C(=O)N3CCC(C(Cc4ccc(F)cc4F)N(C)C(=O)C4CC4)CC3)cc2c1C (stereo not given),bacterial growth OD600,polymyxin B 0.75 µg/mL,0.006
CCN1CCN(C2(C(=O)NC(C)Cc3cnccn3)Cc3ccccc3C2)CC1 (stereo not given),bacterial growth OD600,polymyxin B 0.75 µg/mL,0.877
Clc1ccc(N2CCC(NC3COc4ccccc4C3)CC2)cc1 (stereo not given),bacterial growth OD600,polymyxin B 1 µg/mL,1.06
CC(C)C[C@H](NC(=O)C1(N2C[C@@H](C)O[C@@H](C)C2)Cc2ccccc2C1)C(N)=O,bacterial growth OD600,polymyxin B 0.75 µg/mL,0.736
COCCNC(=O)c1ccc(OC)cc1OC1CCN(CC2CCOC(C)(C)C2)CC1 (stereo not given),bacterial growth OD600,polymyxin B 1 µg/mL,0.965
Cc1nc2ccccc2n1Cc1cc(C(=O)NC2CCCC2)no1,bacterial growth OD600,polymyxin B 0.75 µg/mL,0.726

# 8 successive compounds out of the list so far, quoted:
smiles,measurement,setting,value
CCCn1c(C)c(CC(=O)N(CC)CC)c2c1CC(C)(C)CC2=O,bacterial growth OD600,polymyxin B 0.75 µg/mL,0.904
CSCC(=O)NC1CC(C)(C)Cc2nc(N3CCOCC3)ncc21 (stereo not given),bacterial growth OD600,polymyxin B 0.75 µg/mL,0.867
CCN(CC1CCN(CCc2ccccc2C)CC1)C(=O)c1ccoc1C,bacterial growth OD600,polymyxin B 1 µg/mL,1.19
Cc1[nH]c2ccc(C(=O)N3CCC(C(Cc4ccc(F)cc4F)N(C)C(=O)C4CC4)CC3)cc2c1C (stereo not given),bacterial growth OD600,polymyxin B 0.75 µg/mL,0.006
CCN1CCN(C2(C(=O)NC(C)Cc3cnccn3)Cc3ccccc3C2)CC1 (stereo not given),bacterial growth OD600,polymyxin B 0.75 µg/mL,0.877
Clc1ccc(N2CCC(NC3COc4ccccc4C3)CC2)cc1 (stereo not given),bacterial growth OD600,polymyxin B 1 µg/mL,1.06
CC(C)C[C@H](NC(=O)C1(N2C[C@@H](C)O[C@@H](C)C2)Cc2ccccc2C1)C(N)=O,bacterial growth OD600,polymyxin B 0.75 µg/mL,0.736
COCCNC(=O)c1ccc(OC)cc1OC1CCN(CC2CCOC(C)(C)C2)CC1 (stereo not given),bacterial growth OD600,polymyxin B 1 µg/mL,0.965
